# Results as given in patent US11753432B2, “Compound with analgesic effect for use in prevention and treatment of pain” (Academia Sinica, priority 2017, dated 2023).
# Some of these results come from one statement about several compounds together.
# Experiment: Tolerated dose / safety range in the ICS mouse model
# Assay type: in vivo
# Conditions: compared with T1-11
# Method: Female C57BL/6JNarl mice aged 8-12 weeks were purchased from the National Laboratory Animal Center (Taipei, Taiwan). […] Mechanical hyperalgesia was assayed by testing the withdrawal response of mouse hindpaws to 0.2-mN von Frey filament stimulation.
smiles,measurement,value
"O=C(O)CNC(=O)OC[C@H]1O[C@@H](n2cnc3c(NCc4ccc(O)cc4)ncnc32)C(O)C1O (stereo partly shown) [I-a1, 5′-O-(Glycine-N-carbonyl)-N^6-(4-hydroxybenzyl)adenosine]","wider safety ranges than T1-11, up to",up to 64 mg/kg
